# Reference: patent US20100016371A1, “Indole Compounds” (Glaxo Group Limited, priority 2006, published 2010)
# Some results were stated once for a whole list of compounds, not compound by compound.
# Legend:
# [1] = biological target: T1, human prostanoid EP1 receptor (Homo sapiens, UniProt P34995); assay: Binding assay for the human prostanoid EP1 receptor (competition with [3H]-PGE2); conditions: [3H]-PGE2 competition, CHO-K1 cell membranes; averages of a number of experiments
# T1 construct: expressed in transfected cells; host or cells: CHO-K1 cells, membrane fraction
# T1 sequence (P34995 1-402): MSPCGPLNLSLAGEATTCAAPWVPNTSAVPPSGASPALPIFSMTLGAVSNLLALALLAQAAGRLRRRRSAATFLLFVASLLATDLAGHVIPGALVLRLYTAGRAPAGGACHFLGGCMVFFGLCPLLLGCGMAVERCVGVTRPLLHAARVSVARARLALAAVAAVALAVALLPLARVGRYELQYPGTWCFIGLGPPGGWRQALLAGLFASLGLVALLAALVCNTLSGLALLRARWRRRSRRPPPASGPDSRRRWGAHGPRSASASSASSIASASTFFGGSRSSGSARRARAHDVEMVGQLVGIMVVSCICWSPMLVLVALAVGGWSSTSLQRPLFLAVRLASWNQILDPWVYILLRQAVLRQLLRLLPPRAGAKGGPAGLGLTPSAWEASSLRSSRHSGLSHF
# Experimental: Binding Assay for the Human Prostanoid EP1 Receptor
# Competition assay using [^3H]-PGE2
# Compound potencies are determined using a radioligand binding assay. In this assay compound potencies are determined from their ability to compete with tritiated prostaglandin E2 ([^3H]-PGE2) for binding to the human EP1 receptor.
# This assay utilises Chinese hamster ovary-K1 (CHO-K1) cells into which a stable vector containing the EP1 cDNA has previously been transfected. Cells are cultured in suitable flasks containing culture medium such as DMEM:F-12 supplemented with 10% v/v foetal calf serum, 2 mM L-glutamine, 0.25 mg/ml geneticin, […] puromycin and 10 μM indomethacin.
# Cells are detached from the culture flasks by incubation in calcium and magnesium free phosphate buffered saline containing 1 mM disodium ethylenediaminetetraacetic acid (Na2EDTA) and 10 μM indomethacin for 5 min. The cells are isolated by centrifugation at 250×g for 5 mins and suspended in an ice cold buffer such as 50 mM Tris, 1 mM Na2EDTA, 140 mM NaCl, 10 μM indomethacin (pH 7.4). The cells are homogenised using a Polytron tissue disrupter (2×10s burst at full setting), centrifuged at 48,000×g for 20 mins and the pellet containing the membrane fraction is washed (optional) three times by suspension and centrifugation at 48,000×g for 20 mins. The final membrane pellet is suspended in an assay buffer such as 10 mM 2-[N-morpholino]ethanesulphonic acid, 1 mM Na2EDTA,10 mM MgCl2 (pH 6). Aliquots are frozen at −80° C. until required.
# For the binding assay the cell membranes, competing compounds and [^3H]-PGE2 (3 nM final assay concentrations are incubated in a final volume of 100 μl for 30 min at 30° C. All reagents are prepared in assay buffer. Reactions are terminated by rapid vacuum filtration over GF/B filters using a Brandell cell harvester. The filters are washed with ice cold assay buffer, dried and the radioactivity retained on the filters is measured by liquid scintillation counting in Packard TopCount scintillation counter.
# The data are analysed using non linear curve fitting techniques to determine the concentration of compound producing 50% inhibition of specific binding (IC50).
# human EP3 receptor = biological target: T2, human EP3 receptor (Homo sapiens, UniProt P43115); assay: human EP3 calcium mobilisation assay (FLIPR, CHO-K1 cells); type: cell-based; conditions: antagonism of PGE2-induced calcium mobilisation, CHO-K1 cells expressing EP3; averages of a number of experiments
# T2 construct: expressed in transfected cells; host or cells: CHO-K1 cells, pCIN vector
# T2 sequence (P43115 1-390): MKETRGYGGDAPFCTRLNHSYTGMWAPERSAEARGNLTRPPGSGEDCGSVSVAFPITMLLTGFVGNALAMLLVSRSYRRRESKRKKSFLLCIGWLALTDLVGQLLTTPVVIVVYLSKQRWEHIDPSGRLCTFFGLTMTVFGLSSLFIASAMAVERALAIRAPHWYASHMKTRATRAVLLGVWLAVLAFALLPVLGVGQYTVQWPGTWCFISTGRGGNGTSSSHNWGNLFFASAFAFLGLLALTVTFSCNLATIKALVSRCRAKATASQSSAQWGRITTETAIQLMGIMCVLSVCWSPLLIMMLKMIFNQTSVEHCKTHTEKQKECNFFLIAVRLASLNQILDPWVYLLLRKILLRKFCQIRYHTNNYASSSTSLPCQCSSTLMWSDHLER
# Experimental: (§1) Biological Activity at EP1 and EP3 Receptors
# (§2) Briefly, the antagonist properties of compounds are assessed by their ability to inhibit the mobilisation of intracellular calcium ([Ca^2+]i) in response to activation of EP1 or EP3 receptors by the natural agonist hormone prostaglandin E2 (PGE2). Increasing concentrations of antagonist reduce the amount of calcium that a given concentration of PGE2 can mobilise. The net effect is to displace the PGE2 concentration-effect curve to higher concentrations of PGE2. The amount of calcium produced is assessed using a calcium-sensitive fluorescent dye such as Fluo-4, AM and a suitable instrument such as a Fluorimetric Imaging Plate Reader (FLIPR). Increasing amounts of [Ca^2+]i produced by receptor activation increase the amount of fluorescence produced by the dye and give rise to an increasing signal. The signal may be detected using the FLIPR instrument and the data generated may be analysed with suitable curve-fitting software.
# (§3) The human EP1 or EP3 calcium mobilisation assay (hereafter referred to as ‘the calcium assay’) utilises Chinese hamster ovary-K1 (CHO-K1) cells into which a stable (pCIN; BioTechniques 20(1996): 102-110) vector containing either EP1 or EP3 cDNA has previously been transfected. Cells are cultured in suitable flasks containing culture medium such as DMEM:F-12 supplemented with 10% v/v foetal calf serum, 2 mM L-glutamine, 0.25 mg/ml geneticin, 100 μM flurbiprofen and 10 μg/ml puromycin.
# (§4) For assay, cells are harvested using a proprietary reagent that dislodges cells such as Versene. Cells are re-suspended in a suitable quantity of fresh culture media for introduction into a 384-well plate. Following incubation for 24 hours at 37° C. the culture media is replaced with a medium containing Fluo-4 and the detergent pluronic acid, and a further incubation takes place. Concentrations of compounds are then added to the plate in order to construct concentration-effect curves. This may be performed on the FLIPR in order to assess the agonist properties of the compounds. Concentrations of PGE2 are then added to the plate in order to assess the antagonist properties of the compounds.
# (§5) The data so generated may be analysed by means of a computerised curve-fitting routine. The concentration of compound that elicits a half-maximal inhibition of the calcium mobilisation induced by PGE2 (pIC50) may then be estimated.
# human EP1 receptor = biological target: T3, human EP1 receptor (Homo sapiens, UniProt P34995); assay: human EP1 calcium mobilisation assay (FLIPR, CHO-K1 cells); type: cell-based; conditions: antagonism of PGE2-induced calcium mobilisation, CHO-K1 cells expressing EP1; averages of a number of experiments
# T3 construct: expressed in transfected cells; host or cells: CHO-K1 cells, pCIN vector
# T3 sequence (P34995 1-402): T1 sequence (P34995 1-402)
# Experimental: as §1, §2, §3, §4, §5
SMILES,pIC50 [1],functional pKi (human EP3 receptor),functional pKi (human EP1 receptor)
"CCCc1cn(-c2nc(C(=O)O)cs2)c2cc(Cl)ccc12 [Example 1, 2-(6-Chloro-3-propyl-1H-indol-1-yl)-1,3-thiazole-4-carboxylic acid]",≥ 6,≤ 6.7,≥ 6.0
"CC(C)(C)CCc1cn(-c2nc(C(=O)O)cs2)c2cc(Cl)ccc12 [Example 2, 2-[6-Chloro-3-(3,3-dimethylbutyl)-1H-indol-1-yl]-1,3-thiazole-4-carboxylic acid]",≥ 6,≤ 6.7,≥ 6.0
"CC(C)Cc1cn(-c2nc(C(=O)O)cs2)c2cc(Br)ccc12 [Example 4, 2-[6-Bromo-3-(2-methylpropyl)-1H-indol-1-yl]-1,3-thiazole-4-carboxylic acid]",≥ 6,≤ 6.7,≥ 6.0
"CC(C)Cc1cn(-c2nc(C(=O)O)co2)c2cc(Cl)ccc12 [Example 5, 2-[6-Chloro-3-(2-methylpropyl)-1H-indol-1-yl]-1,3-oxazole-4-carboxylic acid]",≥ 6,≤ 6.7,≥ 6.0
"CC(C)Cc1cn(Cc2nc(C(=O)O)cs2)c2cc(Cl)ccc12 [Example 6, 2-{[6-Chloro-3-(2-methylpropyl)-1H-indol-1-yl]methyl}-1,3-thiazole-4-carboxylic acid]",≥ 6,≤ 6.7,≥ 6.0
"CC(C)Cc1cn(-c2nc(C(=O)O)cs2)c2ccccc12 [Example 10, 2-[3-(2-Methylpropyl)-1H-indol-1-yl]-1,3-thiazole-4-carboxylic acid]",≥ 6,≤ 6.7,≥ 6.0

# Results, then the compound that gave them:
pIC50 [1],functional pKi (human EP3 receptor),functional pKi (human EP1 receptor),SMILES
≥ 6,≤ 6.7,≥ 6.0,"CC(C)c1cn(-c2nc(C(=O)O)cs2)c2cc(Cl)ccc12 [Example 3, 2-[6-Chloro-3-(1-methylethyl)-1H-indol-1-yl]-1,3-thiazole-4-carboxylic acid]"
≥ 6,≤ 6.7,≥ 6.0,"CC(C)C(=O)c1cn(-c2nc(C(=O)O)cs2)c2cc(Cl)ccc12 [Example 7, 2-[6-Chloro-3-(2-methylpropanoyl)-1H-indol-1-yl]-1,3-thiazole-4-carboxylic acid]"
≥ 6,≤ 6.7,≥ 6.0,"O=C(O)c1csc(-n2cc(Cc3ccccc3)c3ccc(Cl)cc32)n1 [Example 8, 2-[6-Chloro-3-(phenylmethyl)-1H-indol-1-yl]-1,3-thiazole-4-carboxylic acid]"
≥ 6,≤ 6.7,≥ 6.0,"O=C(O)c1csc(-n2cc(CC(F)(F)F)c3ccc(Cl)cc32)n1 [Example 9, 2-[6-Chloro-3-(2,2,2-trifluoroethyl)-1H-indol-1-yl]-1,3-thiazole-4-carboxylic acid]"
≥ 6,≤ 6.7,≥ 6.0,"CC(C)Cc1nn(-c2nc(C(=O)O)cs2)c2cc(Cl)ccc12 [Example 11, 2-[6-Chloro-3-(2-methylpropyl)-1H-indazol-1-yl]-1,3-thiazole-4-carboxylic acid]"
≥ 6,≤ 6.7,≥ 6.0,"CC(C)(C)Cc1cn(-c2nc(C(=O)O)cs2)c2cc(Cl)ccc12 [Example 12, 2-[6-Chloro-3-(2,2-dimethylpropyl)-1H-indol-1-yl]-1,3-thiazole-4-carboxylic acid]"
≥ 6,≤ 6.7,≥ 6.0,"CC(C)Cc1cn(-c2nc(C(=O)O)cs2)c2cc(C(F)(F)F)ccc12 [Example 13, 2-[3-(2-Methylpropyl)-6-(trifluoromethyl)-1H-indol-1-yl]-1,3-thiazole-4-carboxylic acid]"
–,≤ 6.7,–,"CC(C)Cc1cn(-c2nc(C(=O)O)cs2)c2cc(Cl)ccc12 [Example 17, 2-[6-Chloro-3-(2-methylpropyl)-1H-indol-1-yl]-1,3-thiazole-4-carboxylic acid]"
